Assay results: paper doi:10.1101/2022.11.26.518021
These are yes or no findings as the source states them, for the method shown. In cells and extracts the contact can be indirect. Some binding calls cover weakened binding; strength is not graded here. Tags and fused reporters may be left off the sequences shown.

By UniProt entry, the sequences of proteins in these tests, tags left out.
UniProt Q9LN63: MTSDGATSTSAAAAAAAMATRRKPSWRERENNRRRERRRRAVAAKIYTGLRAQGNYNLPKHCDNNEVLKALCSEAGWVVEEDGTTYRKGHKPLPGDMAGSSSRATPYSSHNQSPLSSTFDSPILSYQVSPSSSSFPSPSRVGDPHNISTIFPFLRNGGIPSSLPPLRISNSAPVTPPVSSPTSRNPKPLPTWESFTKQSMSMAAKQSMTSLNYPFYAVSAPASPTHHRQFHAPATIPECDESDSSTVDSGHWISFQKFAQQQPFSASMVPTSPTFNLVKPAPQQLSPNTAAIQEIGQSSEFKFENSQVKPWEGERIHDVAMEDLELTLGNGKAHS

T1: PL1-GFP (35Spro:gPL1-GFP/Col-0, line #1.6) (Arabidopsis thaliana)
T1 sequence: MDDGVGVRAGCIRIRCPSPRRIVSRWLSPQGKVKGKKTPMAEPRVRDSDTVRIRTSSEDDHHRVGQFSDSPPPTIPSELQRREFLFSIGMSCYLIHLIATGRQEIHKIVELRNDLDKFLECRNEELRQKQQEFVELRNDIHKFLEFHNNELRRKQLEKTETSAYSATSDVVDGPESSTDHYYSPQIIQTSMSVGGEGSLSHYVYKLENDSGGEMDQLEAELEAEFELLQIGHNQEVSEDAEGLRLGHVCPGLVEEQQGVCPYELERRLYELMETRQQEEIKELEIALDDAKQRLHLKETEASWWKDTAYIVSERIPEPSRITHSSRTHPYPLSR

T2: POLAR-GFP (35Spro:gPOLAR-GFP/Col-0, line #3.1) (Arabidopsis thaliana) (UniProt Q6NQ99)
T2 sequence: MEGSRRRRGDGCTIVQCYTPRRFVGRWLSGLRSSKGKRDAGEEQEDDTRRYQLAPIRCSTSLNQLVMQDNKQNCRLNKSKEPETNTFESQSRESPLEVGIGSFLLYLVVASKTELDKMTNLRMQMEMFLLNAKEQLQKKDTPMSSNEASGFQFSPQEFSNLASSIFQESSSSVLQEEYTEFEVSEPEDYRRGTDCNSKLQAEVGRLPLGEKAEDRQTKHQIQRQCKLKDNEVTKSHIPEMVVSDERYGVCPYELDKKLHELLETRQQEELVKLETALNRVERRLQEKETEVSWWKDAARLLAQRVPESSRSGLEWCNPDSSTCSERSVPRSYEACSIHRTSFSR

T3: PL1-GFP (35Spro:PL1-GFP), POLAR-LIKE1 (Arabidopsis thaliana)
T3 sequence: T1 sequence

B1: mCherry-BASL (35Spro:mCherry-BASL), BREAKING OF … IN THE STOMATAL LINEAGE (protein, UniProt Q5BPF3 1-262)
chain: MASQWTIPKLVTWRVRDWASCFLACKIPLDGDEDGANNNGNTTNNNNLTFKRIKRKIKSTKKKRSERKLSLSPPGTRHHHLHLRSSSVSPTTSGSQHRRLSWPQPPVSEESGFIVFCFDREDGGFDVVKEGKQEKKETESSSEKSPRTVNRKLIYGDQGVGGTEKNNSPETKGTEQDQNDNTSCQGTKDVSSDVTERTKEEEDIDASDKSSGSSHSDEGRGSFAFPILGVEWMGSPAKMPESDDLSPKKQKPVALGFQCCRF
B2: POLAR-mCherry (35Spro:POLAR-mCherry), POLAR LOCALIZATION DURING … DIVISION AND REDISTRIBUTION (protein, UniProt Q6NQ99 1-344)
chain: T2 sequence

Columns and labels:
Test in all cases: co-IP
[1] = molecular target: T1, PL1-GFP (35Spro:gPL1-GFP/Col-0, line #1.6) (Arabidopsis thaliana)
[2] = molecular target: T2, POLAR-GFP (35Spro:gPOLAR-GFP/Col-0, line #3.1) (Arabidopsis thaliana)
[3] = molecular target: T3, PL1-GFP (35Spro:PL1-GFP), POLAR-LIKE1 (Arabidopsis thaliana)

Row | Molecule | binding [1] | binding [2] | binding [3]
1 | BRI1-EMS-SUPPRESSOR1 (BES1)/BZR2 (from UniProt Q9LN63 1-335) | binds | binds | 
2 | B1 |  |  | binds
3 | B2 |  |  | binds
